According to publication PMC7512546:
These are yes or no findings as the source states them, for the method shown. Binding seen in cells or lysates may run through a third protein. Some results given as binding are weak or reduced against the parent protein; the word gives no strength.

Protein sequences, listed by entry. Tags and fused reporters are not part of them. Lines headed by an entry give the natural chain unless they say otherwise; changes in a name come on top. Chains listed by the source or under a name are the forms on record and can include a tag or linker. Residues count along the entry.
UniProt P03418: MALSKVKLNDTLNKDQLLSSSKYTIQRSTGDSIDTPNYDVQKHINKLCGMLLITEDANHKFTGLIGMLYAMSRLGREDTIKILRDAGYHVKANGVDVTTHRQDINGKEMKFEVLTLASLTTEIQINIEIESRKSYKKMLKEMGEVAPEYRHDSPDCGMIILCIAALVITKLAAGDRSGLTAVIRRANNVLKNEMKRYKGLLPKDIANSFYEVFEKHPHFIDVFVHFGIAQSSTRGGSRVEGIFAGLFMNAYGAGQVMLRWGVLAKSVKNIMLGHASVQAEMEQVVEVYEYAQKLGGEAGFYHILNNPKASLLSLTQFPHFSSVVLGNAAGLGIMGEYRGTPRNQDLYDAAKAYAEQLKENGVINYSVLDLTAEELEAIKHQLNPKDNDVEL
UniProt P12579: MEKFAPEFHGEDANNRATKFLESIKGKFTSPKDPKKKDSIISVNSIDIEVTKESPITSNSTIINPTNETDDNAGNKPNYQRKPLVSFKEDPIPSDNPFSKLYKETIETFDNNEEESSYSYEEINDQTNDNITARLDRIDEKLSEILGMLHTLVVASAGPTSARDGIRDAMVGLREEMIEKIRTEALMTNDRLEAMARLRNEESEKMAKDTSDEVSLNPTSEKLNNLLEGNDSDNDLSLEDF
GST-P[161-241] (RSV phosphoprotein residues 161 to 241 fused to GST): residues 161-241 of P12579

Columns and labels:
[1] = biological target: RSV nucleoprotein N, wild type (expressed in BSRT7/5 cells) (human respiratory syncytial virus) (UniProt P03418); test: co-sedimentation; soluble/insoluble fractionation of BSRT7/5 cells expressing P and/or N 24 h posttransfection; lysis in 50 mM Tris-HCl pH 7.4, 2 mM EDTA, 150 mM NaCl, 1% NP-40, sonicated, 13,000 rpm at 4°C for 30 min; total, soluble and pellet fractions by Western blotting
[2] = biological target: GST-P[161-241] (RSV phosphoprotein residues 161 to 241 fused to GST) (human respiratory syncytial virus) (UniProt P12579); test: pull-down; N or mCherry-N coexpressed with GST-P[161-241] in E. coli BL21 (DE3); GST purification on beads, P-N complexes on beads cut with thrombin 16 h at 20°C, then Superdex 200 in 20 mM Tris-HCl pH 8.5, 150 mM NaCl (preparative purification of N)

Substance | binding [1] | binding [2]
RSV phosphoprotein P (full-length, expressed in BSRT7/5 cells) (from UniProt P12579 1-241) | binds | 
recombinant RSV nucleoprotein N (pET-N, E. coli) (from UniProt P03418 1-391) |  | binds
recombinant mCherry-N (mCherry fused to the N terminus of RSV nucleoprotein N) (from UniProt P03418 1-391) |  | binds
